Values quoted from earlier work, collected in patent publication US20110171300A1, “DELTA 9 TETRAHYDROCANNABINOL DERIVATIVES” ([…] LIMITED, priority 2007, published 2011).
At least one compound was matched to its structure with a doubt left.

Conditions: cited from earlier work

With CCCCCc1cc(O)c2c(c1C(=O)O)OC(C)(C)[C@@H]1CCC(C)=C[C@@H]21 [THCA-B] as the compound, how does the Psychomimetic activity read?
Its Psychomimetic activity is “psychomimetically inactive”.

With CCCCCc1cc2c(c(O)c1C(=O)O)[C@@H]1C=C(C)CC[C@H]1C(C)(C)O2 [THCA-A] as the compound, how does the Psychomimetic activity read?
The Psychomimetic activity was “psychomimetically inactive”.
